Data taken from patent US10175256B2, “Compositions and methods utilizing lysophosphatidylcholine scaffolds” (National University Of Singapore, priority 2013, dated 2019).

Experiment: Lipidomic analysis of brain, liver and heart phospholipids of WT and Mfsd2a KO mice (Table 2)
Assay type: in vivo
Conditions: MS, normalized to internal standard

CCCCCCCCCCCCCCCCCCOC[C@@H](O)COP(=O)([O-])OCC[N+](C)(C)C [LysoPC18:0e]
Amount of lipid species, brain-KO1 (Mfsd2a KO mouse 1): 0.001689 mol percent in total phospholipid analysed
Amount of lipid species, brain-KO2 (Mfsd2a KO mouse 2): 0.001518 mol percent in total phospholipid analysed
Amount of lipid species, brain-KO3 (Mfsd2a KO mouse 3): 0.001554 mol percent in total phospholipid analysed
Amount of lipid species, brain-KO4 (Mfsd2a KO mouse 4): 0.00147 mol percent in total phospholipid analysed
Amount of lipid species, brain-WT1 (wild-type mouse 1): 0.001262 mol percent in total phospholipid analysed
Amount of lipid species, brain-WT2 (wild-type mouse 2): 0.001318 mol percent in total phospholipid analysed
Amount of lipid species, brain-WT3 (wild-type mouse 3): 0.001259 mol percent in total phospholipid analysed
Amount of lipid species, brain-WT4 (wild-type mouse 4): 0.001151 mol percent in total phospholipid analysed
Amount of lipid species, brain-WT5 (wild-type mouse 5): 0.001118 mol percent in total phospholipid analysed
Amount of lipid species, liver-KO1 (liver, Mfsd2a KO mouse 1): 0.006998 mol percent in total phospholipid analysed
Amount of lipid species, liver-KO2 (liver, Mfsd2a KO mouse 2): 0.005765 mol percent in total phospholipid analysed
Amount of lipid species, liver-KO3 (liver, Mfsd2a KO mouse 3): 0.007272 mol percent in total phospholipid analysed
Amount of lipid species, liver-KO4 (liver, Mfsd2a KO mouse 4): 0.005924 mol percent in total phospholipid analysed
Amount of lipid species, liver-WT1 (liver, wild-type mouse 1): 0.005996 mol percent in total phospholipid analysed
Amount of lipid species, liver-WT2 (liver, wild-type mouse 2): 0.005175 mol percent in total phospholipid analysed
Amount of lipid species, liver-WT3 (liver, wild-type mouse 3): 0.004757 mol percent in total phospholipid analysed
Amount of lipid species, liver-WT4 (liver, wild-type mouse 4): 0.005185 mol percent in total phospholipid analysed
Amount of lipid species, liver-WT5 (liver, wild-type mouse 5): 0.006143 mol percent in total phospholipid analysed

CCCCCCCCCCCCCCCC(=O)OC[C@@H](O)COP(=O)(O)OCCN [LysoPE16:0]
Amount of lipid species, brain-KO1 (Mfsd2a KO mouse 1): 0.2335 mol percent in total phospholipid analysed
Amount of lipid species, brain-KO2 (Mfsd2a KO mouse 2): 0.13 mol percent in total phospholipid analysed
Amount of lipid species, brain-KO3 (Mfsd2a KO mouse 3): 0.071 mol percent in total phospholipid analysed
Amount of lipid species, brain-KO4 (Mfsd2a KO mouse 4): 0.1366 mol percent in total phospholipid analysed
Amount of lipid species, brain-WT1 (wild-type mouse 1): 0.1654 mol percent in total phospholipid analysed
Amount of lipid species, brain-WT2 (wild-type mouse 2): 0.2201 mol percent in total phospholipid analysed
Amount of lipid species, brain-WT3 (wild-type mouse 3): 0.1381 mol percent in total phospholipid analysed
Amount of lipid species, brain-WT4 (wild-type mouse 4): 0.1322 mol percent in total phospholipid analysed
Amount of lipid species, brain-WT5 (wild-type mouse 5): 0.1237 mol percent in total phospholipid analysed

CCCCCCCCCCCCCCCCCC(=O)OC[C@@H](O)COP(=O)(O)OCCN [LysoPE18:0]
Amount of lipid species, brain-KO1 (Mfsd2a KO mouse 1): 0.3933 mol percent in total phospholipid analysed
Amount of lipid species, brain-KO2 (Mfsd2a KO mouse 2): 0.4911 mol percent in total phospholipid analysed
Amount of lipid species, brain-KO3 (Mfsd2a KO mouse 3): 0.5088 mol percent in total phospholipid analysed
Amount of lipid species, brain-KO4 (Mfsd2a KO mouse 4): 0.3963 mol percent in total phospholipid analysed
Amount of lipid species, brain-WT1 (wild-type mouse 1): 0.3859 mol percent in total phospholipid analysed
Amount of lipid species, brain-WT2 (wild-type mouse 2): 0.4891 mol percent in total phospholipid analysed
Amount of lipid species, brain-WT3 (wild-type mouse 3): 0.3177 mol percent in total phospholipid analysed
Amount of lipid species, brain-WT4 (wild-type mouse 4): 0.3174 mol percent in total phospholipid analysed
Amount of lipid species, brain-WT5 (wild-type mouse 5): 0.4124 mol percent in total phospholipid analysed

CCCCCCCCCCCCCCCC/C=C\OC[C@@H](O)COP(=O)(O)OCCN [LysoPE18:0p]
Amount of lipid species, brain-KO1 (Mfsd2a KO mouse 1): 0.6022 mol percent in total phospholipid analysed
Amount of lipid species, brain-KO2 (Mfsd2a KO mouse 2): 0.7223 mol percent in total phospholipid analysed
Amount of lipid species, brain-KO3 (Mfsd2a KO mouse 3): 0.71 mol percent in total phospholipid analysed
Amount of lipid species, brain-KO4 (Mfsd2a KO mouse 4): 0.6559 mol percent in total phospholipid analysed
Amount of lipid species, brain-WT1 (wild-type mouse 1): 0.8958 mol percent in total phospholipid analysed
Amount of lipid species, brain-WT2 (wild-type mouse 2): 0.7214 mol percent in total phospholipid analysed
Amount of lipid species, brain-WT3 (wild-type mouse 3): 0.898 mol percent in total phospholipid analysed
Amount of lipid species, brain-WT4 (wild-type mouse 4): 0.9654 mol percent in total phospholipid analysed
Amount of lipid species, brain-WT5 (wild-type mouse 5): 1.141 mol percent in total phospholipid analysed

PE38:5
Amount of lipid species, brain-KO1 (Mfsd2a KO mouse 1): 1.106 mol percent in total phospholipid analysed
Amount of lipid species, brain-KO2 (Mfsd2a KO mouse 2): 1.079 mol percent in total phospholipid analysed
Amount of lipid species, brain-KO3 (Mfsd2a KO mouse 3): 1.152 mol percent in total phospholipid analysed
Amount of lipid species, brain-KO4 (Mfsd2a KO mouse 4): 0.9839 mol percent in total phospholipid analysed
Amount of lipid species, brain-WT1 (wild-type mouse 1): 0.8085 mol percent in total phospholipid analysed
Amount of lipid species, brain-WT2 (wild-type mouse 2): 0.8641 mol percent in total phospholipid analysed
Amount of lipid species, brain-WT3 (wild-type mouse 3): 0.9578 mol percent in total phospholipid analysed
Amount of lipid species, brain-WT4 (wild-type mouse 4): 1.076 mol percent in total phospholipid analysed
Amount of lipid species, brain-WT5 (wild-type mouse 5): 0.999 mol percent in total phospholipid analysed
